According to the supplement of paper PMC7666118:
The list shows a part of the results.

The chains behind the UniProt entries cited, without tags or fusion partners. Where a name states a change or a piece, a line headed by the entry shows the natural chain unless it says otherwise.
UniProt Q9HBH0: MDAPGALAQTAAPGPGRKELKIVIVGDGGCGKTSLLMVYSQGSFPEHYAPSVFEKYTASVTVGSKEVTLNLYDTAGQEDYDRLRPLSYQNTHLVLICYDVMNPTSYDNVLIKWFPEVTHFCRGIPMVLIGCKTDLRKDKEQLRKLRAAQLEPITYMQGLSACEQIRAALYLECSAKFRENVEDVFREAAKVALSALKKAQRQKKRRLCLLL
UniProt O95997: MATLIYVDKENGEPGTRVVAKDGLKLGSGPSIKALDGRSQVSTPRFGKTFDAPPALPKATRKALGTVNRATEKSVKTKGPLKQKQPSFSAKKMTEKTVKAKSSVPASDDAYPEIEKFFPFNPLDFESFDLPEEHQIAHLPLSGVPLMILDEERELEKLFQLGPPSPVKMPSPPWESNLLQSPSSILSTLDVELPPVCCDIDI
UniProt Q05823: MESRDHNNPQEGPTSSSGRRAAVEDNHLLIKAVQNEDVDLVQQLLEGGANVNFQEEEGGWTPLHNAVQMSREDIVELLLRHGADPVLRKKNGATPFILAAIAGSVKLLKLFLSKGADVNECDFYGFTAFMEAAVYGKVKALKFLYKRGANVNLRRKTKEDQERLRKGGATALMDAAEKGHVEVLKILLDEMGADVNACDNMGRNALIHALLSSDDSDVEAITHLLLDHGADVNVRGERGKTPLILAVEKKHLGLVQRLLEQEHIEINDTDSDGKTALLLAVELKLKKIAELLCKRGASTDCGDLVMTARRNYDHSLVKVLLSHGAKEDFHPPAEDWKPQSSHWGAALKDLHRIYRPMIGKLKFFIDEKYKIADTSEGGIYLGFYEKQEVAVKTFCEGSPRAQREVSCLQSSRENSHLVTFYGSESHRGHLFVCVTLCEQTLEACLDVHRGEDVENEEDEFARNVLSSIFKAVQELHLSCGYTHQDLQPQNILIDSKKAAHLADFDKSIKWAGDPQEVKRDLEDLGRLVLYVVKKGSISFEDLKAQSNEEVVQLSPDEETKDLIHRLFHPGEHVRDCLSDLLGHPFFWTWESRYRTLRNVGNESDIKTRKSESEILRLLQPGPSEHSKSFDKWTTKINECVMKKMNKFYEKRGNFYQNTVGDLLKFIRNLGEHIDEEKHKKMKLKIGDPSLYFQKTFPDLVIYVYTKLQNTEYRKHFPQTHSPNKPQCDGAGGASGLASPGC
UniProt Q14761: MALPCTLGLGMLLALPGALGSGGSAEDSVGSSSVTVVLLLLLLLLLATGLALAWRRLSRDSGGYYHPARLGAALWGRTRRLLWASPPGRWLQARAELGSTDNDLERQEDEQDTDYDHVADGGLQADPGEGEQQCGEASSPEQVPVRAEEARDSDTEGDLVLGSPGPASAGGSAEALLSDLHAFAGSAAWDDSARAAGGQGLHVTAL
UniProt P54725: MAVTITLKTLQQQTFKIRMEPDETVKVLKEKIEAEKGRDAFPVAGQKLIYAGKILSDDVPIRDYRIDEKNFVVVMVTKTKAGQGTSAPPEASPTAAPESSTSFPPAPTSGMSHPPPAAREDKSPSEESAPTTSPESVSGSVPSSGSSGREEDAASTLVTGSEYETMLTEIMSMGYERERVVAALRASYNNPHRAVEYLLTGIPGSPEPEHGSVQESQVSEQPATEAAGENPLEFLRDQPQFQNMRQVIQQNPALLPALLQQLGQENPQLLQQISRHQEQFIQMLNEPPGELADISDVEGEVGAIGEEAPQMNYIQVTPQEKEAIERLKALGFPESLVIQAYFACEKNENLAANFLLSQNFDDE
UniProt Q9UL26: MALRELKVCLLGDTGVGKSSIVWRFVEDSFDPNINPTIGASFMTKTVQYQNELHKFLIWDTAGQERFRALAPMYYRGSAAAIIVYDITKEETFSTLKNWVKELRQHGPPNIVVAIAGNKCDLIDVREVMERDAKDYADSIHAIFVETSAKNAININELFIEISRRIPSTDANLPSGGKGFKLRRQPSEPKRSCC
UniProt Q9H9A7: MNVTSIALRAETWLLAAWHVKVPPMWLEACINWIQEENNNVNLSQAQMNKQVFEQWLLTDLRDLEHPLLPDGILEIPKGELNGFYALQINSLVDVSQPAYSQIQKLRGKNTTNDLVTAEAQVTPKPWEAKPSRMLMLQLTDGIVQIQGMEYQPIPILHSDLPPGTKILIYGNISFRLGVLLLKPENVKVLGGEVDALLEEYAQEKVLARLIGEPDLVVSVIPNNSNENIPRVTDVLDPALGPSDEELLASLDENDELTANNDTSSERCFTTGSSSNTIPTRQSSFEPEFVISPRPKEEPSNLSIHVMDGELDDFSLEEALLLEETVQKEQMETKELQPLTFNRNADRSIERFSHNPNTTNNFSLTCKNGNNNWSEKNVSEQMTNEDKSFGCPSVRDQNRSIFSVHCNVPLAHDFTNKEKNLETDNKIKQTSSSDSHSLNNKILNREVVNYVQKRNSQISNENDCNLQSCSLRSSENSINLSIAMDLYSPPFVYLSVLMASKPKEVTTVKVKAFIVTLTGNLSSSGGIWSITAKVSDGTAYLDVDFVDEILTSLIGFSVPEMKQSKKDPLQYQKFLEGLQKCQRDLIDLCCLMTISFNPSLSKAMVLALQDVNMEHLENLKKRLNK
UniProt Q9Y2P8: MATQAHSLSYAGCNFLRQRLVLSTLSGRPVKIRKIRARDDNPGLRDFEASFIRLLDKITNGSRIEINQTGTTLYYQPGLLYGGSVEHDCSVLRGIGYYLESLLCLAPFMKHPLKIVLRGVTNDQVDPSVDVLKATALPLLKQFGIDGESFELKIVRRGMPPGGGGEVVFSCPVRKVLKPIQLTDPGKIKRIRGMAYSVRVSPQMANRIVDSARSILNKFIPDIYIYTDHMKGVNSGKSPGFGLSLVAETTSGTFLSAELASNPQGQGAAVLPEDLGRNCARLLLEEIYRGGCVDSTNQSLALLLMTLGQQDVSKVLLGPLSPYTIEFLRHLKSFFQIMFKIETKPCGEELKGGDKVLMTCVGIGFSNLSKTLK
UniProt Q9BQ04: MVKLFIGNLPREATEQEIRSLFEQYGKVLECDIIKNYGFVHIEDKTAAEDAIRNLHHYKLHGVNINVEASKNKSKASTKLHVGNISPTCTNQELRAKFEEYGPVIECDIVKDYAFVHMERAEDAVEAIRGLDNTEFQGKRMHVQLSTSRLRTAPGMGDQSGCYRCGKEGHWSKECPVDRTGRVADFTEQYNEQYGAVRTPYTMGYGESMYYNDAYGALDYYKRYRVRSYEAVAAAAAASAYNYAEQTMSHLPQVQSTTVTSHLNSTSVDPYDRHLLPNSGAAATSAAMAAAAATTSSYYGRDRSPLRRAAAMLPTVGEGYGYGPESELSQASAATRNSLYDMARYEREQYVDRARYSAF
UniProt Q9Y508: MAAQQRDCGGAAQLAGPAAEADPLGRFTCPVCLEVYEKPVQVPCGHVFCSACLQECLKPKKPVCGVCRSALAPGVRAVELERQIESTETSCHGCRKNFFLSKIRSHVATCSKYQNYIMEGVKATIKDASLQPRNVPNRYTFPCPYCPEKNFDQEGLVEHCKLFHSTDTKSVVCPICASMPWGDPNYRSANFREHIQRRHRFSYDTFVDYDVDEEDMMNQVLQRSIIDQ
UniProt Q14257: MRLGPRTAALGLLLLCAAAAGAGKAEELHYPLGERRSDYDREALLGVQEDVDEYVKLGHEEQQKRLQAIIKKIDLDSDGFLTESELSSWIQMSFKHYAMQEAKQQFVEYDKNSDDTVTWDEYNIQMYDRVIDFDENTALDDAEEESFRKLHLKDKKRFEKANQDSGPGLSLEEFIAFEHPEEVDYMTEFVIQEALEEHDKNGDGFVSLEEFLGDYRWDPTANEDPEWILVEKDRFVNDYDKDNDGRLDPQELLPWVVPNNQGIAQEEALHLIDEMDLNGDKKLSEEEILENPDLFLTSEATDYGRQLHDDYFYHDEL
UniProt P10586, whole entry: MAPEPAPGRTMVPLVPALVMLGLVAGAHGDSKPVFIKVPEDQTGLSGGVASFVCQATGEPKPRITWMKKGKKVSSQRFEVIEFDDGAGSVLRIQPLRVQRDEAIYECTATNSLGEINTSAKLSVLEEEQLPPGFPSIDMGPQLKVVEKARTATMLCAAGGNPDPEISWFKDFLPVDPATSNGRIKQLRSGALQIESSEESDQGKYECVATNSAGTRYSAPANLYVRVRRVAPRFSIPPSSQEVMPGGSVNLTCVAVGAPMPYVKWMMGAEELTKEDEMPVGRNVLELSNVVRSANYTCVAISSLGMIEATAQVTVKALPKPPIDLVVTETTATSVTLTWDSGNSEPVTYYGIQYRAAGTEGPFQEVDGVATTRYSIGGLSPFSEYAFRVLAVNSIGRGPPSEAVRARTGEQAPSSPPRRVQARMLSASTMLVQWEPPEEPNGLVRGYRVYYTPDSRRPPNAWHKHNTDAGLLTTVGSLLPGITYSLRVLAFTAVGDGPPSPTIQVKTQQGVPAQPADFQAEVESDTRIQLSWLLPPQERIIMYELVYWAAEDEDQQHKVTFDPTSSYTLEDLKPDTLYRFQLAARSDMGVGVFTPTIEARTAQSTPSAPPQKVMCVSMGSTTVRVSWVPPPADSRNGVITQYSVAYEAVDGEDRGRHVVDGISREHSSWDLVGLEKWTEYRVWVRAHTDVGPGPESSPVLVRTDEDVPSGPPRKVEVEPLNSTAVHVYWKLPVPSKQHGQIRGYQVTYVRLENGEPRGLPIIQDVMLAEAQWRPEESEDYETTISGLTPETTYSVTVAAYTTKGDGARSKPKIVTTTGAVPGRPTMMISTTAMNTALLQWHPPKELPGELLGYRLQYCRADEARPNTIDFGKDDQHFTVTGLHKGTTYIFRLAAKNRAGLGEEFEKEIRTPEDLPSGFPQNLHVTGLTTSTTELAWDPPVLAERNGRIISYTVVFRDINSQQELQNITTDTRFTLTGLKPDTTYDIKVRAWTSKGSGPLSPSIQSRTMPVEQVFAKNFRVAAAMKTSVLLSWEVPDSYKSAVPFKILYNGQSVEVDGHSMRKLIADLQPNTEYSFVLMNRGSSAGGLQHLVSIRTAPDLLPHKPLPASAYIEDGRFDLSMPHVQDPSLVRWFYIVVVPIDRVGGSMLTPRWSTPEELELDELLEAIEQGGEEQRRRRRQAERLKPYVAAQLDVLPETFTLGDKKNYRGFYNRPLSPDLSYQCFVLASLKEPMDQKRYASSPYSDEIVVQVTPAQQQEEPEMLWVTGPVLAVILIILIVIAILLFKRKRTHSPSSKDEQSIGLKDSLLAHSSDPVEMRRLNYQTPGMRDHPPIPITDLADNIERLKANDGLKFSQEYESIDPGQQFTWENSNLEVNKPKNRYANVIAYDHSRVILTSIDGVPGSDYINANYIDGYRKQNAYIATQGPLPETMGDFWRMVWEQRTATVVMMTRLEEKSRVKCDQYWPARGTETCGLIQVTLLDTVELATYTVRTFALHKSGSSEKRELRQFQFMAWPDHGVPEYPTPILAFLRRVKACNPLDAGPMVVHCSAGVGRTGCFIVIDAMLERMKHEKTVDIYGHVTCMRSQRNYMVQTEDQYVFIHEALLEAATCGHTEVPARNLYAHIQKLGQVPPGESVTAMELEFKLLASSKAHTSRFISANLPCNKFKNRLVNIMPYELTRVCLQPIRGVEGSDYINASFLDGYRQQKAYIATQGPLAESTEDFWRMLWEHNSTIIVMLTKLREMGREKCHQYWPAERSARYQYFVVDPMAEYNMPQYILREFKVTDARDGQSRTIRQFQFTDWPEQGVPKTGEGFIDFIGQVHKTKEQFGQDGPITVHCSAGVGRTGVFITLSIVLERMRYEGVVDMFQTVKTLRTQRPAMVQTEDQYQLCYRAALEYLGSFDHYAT
UniProt P61586, whole entry: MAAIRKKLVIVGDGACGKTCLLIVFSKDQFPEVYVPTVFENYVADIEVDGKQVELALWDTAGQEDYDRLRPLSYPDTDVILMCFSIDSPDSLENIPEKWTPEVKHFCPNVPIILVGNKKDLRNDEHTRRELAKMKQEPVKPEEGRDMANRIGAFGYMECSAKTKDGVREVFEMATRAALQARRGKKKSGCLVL
UniProt P54136: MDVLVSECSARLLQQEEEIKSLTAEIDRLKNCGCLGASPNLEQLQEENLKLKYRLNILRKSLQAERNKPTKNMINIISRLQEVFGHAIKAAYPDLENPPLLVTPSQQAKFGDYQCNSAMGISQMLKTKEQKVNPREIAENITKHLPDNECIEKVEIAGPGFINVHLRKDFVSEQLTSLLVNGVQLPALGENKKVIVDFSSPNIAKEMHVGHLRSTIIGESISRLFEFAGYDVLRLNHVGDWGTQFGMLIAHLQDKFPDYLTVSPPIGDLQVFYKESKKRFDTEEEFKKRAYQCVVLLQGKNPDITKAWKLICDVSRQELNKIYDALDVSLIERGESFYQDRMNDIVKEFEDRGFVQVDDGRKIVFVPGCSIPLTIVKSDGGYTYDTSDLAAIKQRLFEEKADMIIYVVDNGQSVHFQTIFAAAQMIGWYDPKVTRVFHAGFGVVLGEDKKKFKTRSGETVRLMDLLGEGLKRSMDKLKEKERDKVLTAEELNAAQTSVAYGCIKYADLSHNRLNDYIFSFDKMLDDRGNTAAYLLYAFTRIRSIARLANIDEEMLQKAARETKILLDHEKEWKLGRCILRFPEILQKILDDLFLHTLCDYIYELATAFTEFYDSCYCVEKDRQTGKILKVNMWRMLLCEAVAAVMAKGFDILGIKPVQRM

Compound: COc1ccc(Cn2ccc3cc(C)c(C(=O)NO)cc32)cc1
Test: dose-dependent thermal stabilisation call (2D-TPP, DLPTP, 10% FDR) (binary (1 = stabilised)); higher = stabilised by the compound
Details: system: HL-60 intact cells; concentration range 0.04-10 µM
Procedure: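 2D thermal proteome profiling in intact HL-60 cells treated with BRD-3811 (0, 0.04, 0.29, 2, 10 uM) for 90 min at 37 C, then heated 3 min at one of 12 temperatures (42-63.9 C). Soluble protein was quantified by TMT10 MS. The value is the DLPTP call of the paper: dose-dependent thermal stabilisation over all temperatures at 10% FDR (F-test of a dose-response against a flat model); one experiment, one call per tested protein.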

Target	dose-dependent thermal stabilisation call
RHOF (UniProt Q9HBH0)	inactive: 0
PTTG1 (UniProt O95997)	inactive: 0
RERE (UniProt Q9P2R6)	inactive: 0
RABGEF1 (UniProt Q9UJ41)	inactive: 0
RASSF1 (UniProt Q9NS23)	inactive: 0
PYCR2 (UniProt Q96C36)	inactive: 0
RBM33 (UniProt Q96EV2)	inactive: 0
REEP4 (UniProt Q9H6H4)	inactive: 0
RNASEL (UniProt Q05823)	inactive: 0
QTRT1 (UniProt Q9BXR0)	inactive: 0
PTPRCAP (UniProt Q14761)	inactive: 0
RAF1 (UniProt P04049)	inactive: 0
RBPJ (UniProt Q06330)	inactive: 0
RALB (UniProt P11234)	inactive: 0
RAB7L1 (UniProt O14966)	inactive: 0
RAD23A (UniProt P54725)	inactive: 0
RAB22A (UniProt Q9UL26)	inactive: 0
QRSL1 (UniProt Q9H0R6)	inactive: 0

Target	dose-dependent thermal stabilisation call
RANGRF (UniProt Q9HD47)	inactive: 0
RNF2 (UniProt Q99496)	inactive: 0
RMI1 (UniProt Q9H9A7)	inactive: 0
RCL1 (UniProt Q9Y2P8)	inactive: 0
RBM4B (UniProt Q9BQ04)	inactive: 0
RNF114 (UniProt Q9Y508)	inactive: 0
RAB14 (UniProt P61106)	inactive: 0
RAB5A (UniProt P20339)	inactive: 0
RCN2 (UniProt Q14257)	inactive: 0
RFX1 (UniProt P22670)	inactive: 0
RFC5 (UniProt P40937)	inactive: 0
PTPRF (UniProt P10586)	inactive: 0
RHOXF2 (UniProt Q9BQY4)	inactive: 0
RHOA (UniProt P61586)	inactive: 0
RAB37 (UniProt Q96AX2)	inactive: 0
RARS (UniProt P54136)	inactive: 0
REPIN1 (UniProt Q9BWE0)	inactive: 0
PTPRE (UniProt P23469)	inactive: 0

10 entries from above, set out differently:
Target | dose-dependent thermal stabilisation call
RMI1 (UniProt Q9H9A7) | inactive: 0
RCL1 (UniProt Q9Y2P8) | inactive: 0
RBM4B (UniProt Q9BQ04) | inactive: 0
RAB14 (UniProt P61106) | inactive: 0
RAB5A (UniProt P20339) | inactive: 0
RFX1 (UniProt P22670) | inactive: 0
RAB37 (UniProt Q96AX2) | inactive: 0
RARS (UniProt P54136) | inactive: 0
REPIN1 (UniProt Q9BWE0) | inactive: 0
PTPRE (UniProt P23469) | inactive: 0
